Among all 350,000 compounds or so, about 220 (0.063%) were called active. The shares of active, inactive and inconclusive entries below differ from those in the screen. The call rests on the fitted dose curve; in most records, active means well fitted activation curve with a large enough effect; inconclusive means small, poorly fitted or top-dose-only effect; inactive means no such curve, though single readings can be large or run the other way. A potency beside an inconclusive call is a rough fit, not a confirmed value.
Assay: qHTS for Activators of Integrin-Mediated Alleviation for Muscular Dystrophy; further: nearly all actives have a fitted effect of over 60% in size;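 on activation: 100% = response of the positive control SU9516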
Details: alpha7betagal myoblasts, beta-gal FDG fluorescence, 48 h; activation: at 38.3 µM (top of the series)
Outline: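 Alpha7betagal+/- myoblasts (passage 13) were plated 16-24 hr, then exposed to compounds (1:260 dilution of DMSO stock) for 48 hours at 37C. After MPER lysis, β-galactosidase reporter activity was read as FDG fluorescence (ex 480/em 540) after 30 minutes.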
Potency means the concentration at half of the fitted maximal effect.

activation, inactive:
COc1ccccc1CNC(=O)[C@H](C)NC(=O)C1CCN(C(=O)[C@H](CCSC)NC(=O)OC(C)(C)C)CC1 0%, C=CCn1c(CSc2nnc(-c3ccccc3)n2C)n[nH]c1=S 4.65%, Cc1cc(C)cc(NC(=S)NCc2cccnc2)c1 2.06%, OC1CCCN(Cc2cn(Cc3ccccc3)nc2-c2cc3ccccc3o2)C1 (stereo unspecified) -25.1%, CCC(=O)c1ccc(OCC(=O)OCC(=O)NCCCc2ccccc2)cc1 -14.1%, O=C(Nc1ccccc1)NC1CCN(Cc2nnnn2C2CCCCC2)CC1 -5.09%, CCC(C)(C)C1CCc2[nH]nc(C(=O)NN)c2C1 (stereo unspecified) -4.07%, Cc1cccn2cc(COc3cccc([N+](=O)[O-])c3)nc12 23.8%, Cc1ccc2nc3c(cc2c1)c(NC(=O)c1ccccn1)nn3CC(C)C 0.124%, Cc1cc(C(=O)COc2cccc([N+](=O)[O-])c2)c(C)n1C1CC1 -24.5%, O=C(C=C(C(=O)c1ccccc1)c1ccccc1)c1ccccc1 -54.5%, COC(=O)c1c(NC(=O)CSc2nnc3ccccn23)sc2c1CCC2 2.58%, Nc1ccc(Sc2ccc([N+](=O)[O-])cc2)cc1 2.33%, Cc1cccc(/C=N\NC(=O)c2csnn2)c1 -39%, COc1cccc(C(=O)Nc2ccc(NC(=O)c3cc4ccccc4o3)c(OC)c2)c1 -23.3%, CC(=O)c1ccc(OC(C)c2nc3ccccc3s2)cc1 (stereo unspecified) -5.29%

activation, inconclusive:
CCOc1ccc(-n2c(-c3ccc(OC)cc3)c[n+]3c2CCCCC3)cc1 -76.2% [activator]

Potency, inconclusive:
N#Cc1c(N2CCN(c3ccc(F)cc3)CC2)nc(N)c2c(N)nc3c(c12)CC(=O)N3C1CC1 5.01 µM [activator, single point], CCN(CC)CCNC(=O)C(=O)NCC1OCCN1S(=O)(=O)c1ccc(Cl)cc1 (stereo unspecified) 3.98 µM [activator, single point], O=C(CC1C(=O)NC2CCCCC2N1C(=O)c1ccc([N+](=O)[O-])cc1)Nc1ccccc1 (stereo unspecified) 2.82 µM [activator, single point], Cn1c2c(c(=O)n3ncnc13)CCCC2 2.24 µM [activator, partial curve, poor fit], COC(=O)C1C/C(=N\NS(=O)(=O)c2ccc(C)cc2)c2ccsc2C1 (stereo unspecified) 10 µM [activator, single point], O=C1CCc2cc(S(=O)(=O)Nc3ccc(F)cc3)ccc2N1 1 µM [activator, partial curve, poor fit], CCNC(=O)CN(c1ccc(F)cc1)S(=O)(=O)c1ccc2c(c1)OCCO2 3.16 µM [activator, partial curve, poor fit], O=C(NCc1ccccc1)c1cccc(COc2cc(Cl)ccc2Cl)c1 12.6 µM [activator, single point], CCC1CCCCN1C(=O)CCNC(=O)Cn1cnc2ccccc2c1=O (stereo unspecified) 3.98 µM [activator, single point], CN1CCCC(OC(=O)c2ccccc2F)C1 (stereo unspecified) 0.501 µM [activator, full curve, poor fit], CC1CN(C(=O)CCNC(=O)c2ccc(Cl)cc2)CC(C)O1 (stereo unspecified) 28.2 µM [activator, single point], CCCCc1nnc(NC(=O)Cc2ccc(S(=O)(=O)N3CCOCC3)s2)s1 15.8 µM [activator, single point], Oc1ccccc1/C=N/n1c(COc2ccccc2)n[nH]c1=S 28.2 µM [activator, single point], Cc1cc(S(=O)(=O)N2CCOCC2)ccc1OCC(=O)Nc1ccc(F)cc1 4.47 µM [activator, single point], Cc1ccc(S(=O)(=O)NCc2ccc(N3CCN(C(=O)OC(C)(C)C)CC3)cc2)cc1 5.01 µM [activator, single point], COc1ccc(NS(=O)(=O)c2cccc(C(=O)N/N=C/c3cccs3)c2)cc1 8.91 µM [activator, partial curve, poor fit], NNC(=O)c1cc(C23CC4CC(CC(C4)C2)C3)nc2ccccc12 5.01 µM [activator, single point], O=C(NCCN1CCOCC1)c1ccc(NS(=O)(=O)c2ccccc2)cc1 3.16 µM [activator, full curve, poor fit], O=C(c1ccc(F)cc1F)N1CCCC(c2nc(-c3cccs3)no2)C1 (stereo unspecified) 3.98 µM [activator, single point], COC(=O)c1sccc1NC(=O)Nc1ccc(OC)cc1OC 3.16 µM [activator, single point], COc1cc(/C=C2\C(=O)N(c3ccc(S(N)(=O)=O)cc3)N=C2C)ccc1OC(=O)c1ccco1 5.01 µM [activator, single point], O=C(Cc1cccc2ccccc12)Nc1ccccc1C(=O)O 2.24 µM [activator, partial curve, poor fit], COc1ccc(-c2cc(C(=O)N3CCc4ccccc4C3)no2)cc1 5.01 µM [activator, single point], CCC(OC(=O)C(NC(=O)c1ccccc1)c1ccccc1)C(=O)Nc1cc(C)on1 (stereo unspecified) 31.6 µM [activator, single point], O=C1C2CCCN2C(=O)N1CCCN1CCN(c2cccc(Br)c2)CC1 (stereo unspecified) 4.47 µM [activator, partial curve], CNC(=O)C(NC(=O)Nc1ccc(C)cc1)C(C)(C)C (stereo unspecified) 15.8 µM [activator, single point], COc1cc2c(cc1OC)C(c1ccc(Br)cc1)CC(=O)N2 (stereo unspecified) 20 µM [activator, single point], CCOC(=O)Cc1csc(NS(=O)(=O)c2cccc([N+](=O)[O-])c2)n1 2.24 µM [activator, single point]

Potency, active:
Cc1ccc(-c2csnn2)cc1 10 µM
